Experimental findings from publication PMC11362830 are described below.

Chains of the proteins cited; added tags and fusions are not shown. Residues count along the entry.
UniProt P63165, residues 1-97: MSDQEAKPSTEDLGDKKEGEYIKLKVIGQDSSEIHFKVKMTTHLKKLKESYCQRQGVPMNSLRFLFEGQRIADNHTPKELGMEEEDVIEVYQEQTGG
UniProt P08151: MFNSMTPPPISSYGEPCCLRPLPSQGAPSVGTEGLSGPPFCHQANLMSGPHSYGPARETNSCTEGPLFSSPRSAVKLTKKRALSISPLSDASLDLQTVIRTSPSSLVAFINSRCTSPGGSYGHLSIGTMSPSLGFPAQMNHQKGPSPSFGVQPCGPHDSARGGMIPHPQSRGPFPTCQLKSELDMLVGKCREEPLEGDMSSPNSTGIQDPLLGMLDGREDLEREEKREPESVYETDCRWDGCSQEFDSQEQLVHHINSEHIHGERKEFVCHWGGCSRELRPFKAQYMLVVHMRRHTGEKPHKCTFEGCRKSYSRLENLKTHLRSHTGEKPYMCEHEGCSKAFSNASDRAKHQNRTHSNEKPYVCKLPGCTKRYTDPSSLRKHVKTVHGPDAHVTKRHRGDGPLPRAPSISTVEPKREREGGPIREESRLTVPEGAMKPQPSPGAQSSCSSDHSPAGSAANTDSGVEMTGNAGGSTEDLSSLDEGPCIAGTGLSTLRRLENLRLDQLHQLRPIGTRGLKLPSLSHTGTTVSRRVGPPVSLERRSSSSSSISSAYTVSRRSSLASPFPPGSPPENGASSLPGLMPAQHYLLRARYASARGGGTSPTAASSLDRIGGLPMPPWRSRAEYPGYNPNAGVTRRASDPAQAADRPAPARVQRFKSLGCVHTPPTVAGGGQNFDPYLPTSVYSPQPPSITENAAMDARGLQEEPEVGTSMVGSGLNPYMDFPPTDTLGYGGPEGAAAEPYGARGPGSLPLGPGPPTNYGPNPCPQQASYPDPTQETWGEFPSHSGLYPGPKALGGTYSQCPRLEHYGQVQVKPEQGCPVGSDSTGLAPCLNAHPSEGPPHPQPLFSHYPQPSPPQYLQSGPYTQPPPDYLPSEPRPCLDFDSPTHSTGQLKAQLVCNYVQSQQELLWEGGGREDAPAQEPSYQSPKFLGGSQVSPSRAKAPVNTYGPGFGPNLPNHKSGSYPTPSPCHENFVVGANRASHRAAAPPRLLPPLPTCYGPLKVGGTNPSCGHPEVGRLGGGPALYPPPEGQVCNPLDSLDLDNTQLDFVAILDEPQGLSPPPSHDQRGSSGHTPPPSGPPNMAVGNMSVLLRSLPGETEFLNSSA

These are yes or no findings as the source states them, for the method shown. In cells and extracts the contact can be indirect. Some binding calls cover weakened binding; strength is not graded here.

In assay [1] the target is SUMO1 (human (endogenous in primary LF cells)) (UniProt P63165). Briefly: co-IP; reverse Co-IP: LF cell lysate, SUMO1 precipitated, Gli1 detected by immunoblot (Figure 3G). In general terms: In western blotting, separated proteins are transferred to a membrane and probed.
The target of another assay is Flag-SUMO1 (UniProt P63165). The experiment in a line: co-IP; lysate of HEK 293T cells transfected with Myc-Gli1 and Flag-SUMO1, immunoprecipitated with anti-Flag, immunoblotted with anti-Flag and anti-Myc (Figure 3H).
Assay [2] concerns the target Gli1 (human (endogenous in primary LF cells)) (UniProt P08151). The experiment in a line: co-IP; LF cell lysate, Gli1 precipitated, SUMO1 detected by immunoblot (Figure 3F).

Gli1 (from UniProt P08151 1-1106): in assay [1], the binding result is listed as “binds”.

Myc-Gli1 (from UniProt P08151 1-1106): the binding entry in the assay with Flag-SUMO1 is recorded as “binds”.

Regarding SUMO1 (from UniProt P63165 1-97), the binding result in assay [2] is “binds”.
